PubChem BioAssay AID1259308 – NCATS – 2017

- Screen: 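Candidate targets for better recombinant protein yield in mammalian cells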 (primary screen)
- Cells: human HEK293 embryonic kidney cells stably expressing firefly luciferase (HEK-CMV-Luc2-Hygro)
- Reagent: single siRNA against human genes, 0.8 pmol siRNA per well
- Duration: 72 h
- Read-out: 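Reporter luminescence and viable-cell signal on separate replicate plates, given as percent of non-targeting control and median/MAD z-scores, plus per-cell luciferase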
- Scale: total luciferase, z-score and total luciferase, % of control: higher = more reporter protein produced; luciferase per cell, z-score: higher = more reporter output per viable cell; viable cells, % of control: higher = more viable cells
- Rule for the call: 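Active when the median/MAD z-score for overall luciferase is greater than 3; a gene was taken forward for validation with new siRNAs if at least two of its three siRNAs passed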
- Calls: active = raised luciferase; inactive = no rise
Here is a random part of about 59,000 deposited reagents. About 1,510 of all reagents (2.6%) were called active. 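Calls use total luciferase alone and ignore viability, so some active siRNAs may act by altering cell number.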 Reagent sequences are not shown.

Gene | PubChem SID | total luciferase, z-score | total luciferase, % of control | luciferase per cell, z-score | viable cells, % of control | call
FOXQ1 | SID160754651 | 0.269 | 87.2 | 0.149 | 93.7 | inactive
FOXQ1 | SID160754652 | -0.424 | 73.5 | -0.633 | 97 | inactive
FOXQ1 | SID160754653 | 1 | 102 | 0.53 | 98.9 | inactive
TBC1D25 | SID160778330 | -0.214 | 77.6 | -0.283 | 93.5 | inactive
TBC1D25 | SID160778331 | 0.134 | 84.6 | -0.206 | 99.7 | inactive
TBC1D25 | SID160778332 | 2.92 | 140 | 1.8 | 97.3 | inactive
TRIM24 | SID160720851 | 0.487 | 91.6 | -0.0962 | 105 | inactive
TRIM24 | SID160720852 | -1.82 | 45.8 | -0.483 | 58.1 | inactive
TRIM24 | SID160720853 | 0.429 | 90.4 | -0.168 | 106 | inactive
LMTK3 | SID160754960 | 1.93 | 120 | 1.57 | 88.9 | inactive
LMTK3 | SID160754961 | -0.315 | 75.6 | -0.648 | 100 | inactive
LMTK3 | SID160754963 | -0.739 | 67.2 | -1.26 | 105 | inactive
CANT1 | SID160756202 | 1.21 | 106 | 0.869 | 94.2 | inactive
CANT1 | SID160756203 | -0.156 | 78.8 | -0.784 | 108 | inactive
CANT1 | SID160756204 | 0.0757 | 83.4 | -0.239 | 99.2 | inactive
ZSWIM9 | SID160765350 | -0.324 | 75.4 | -0.494 | 96 | inactive
ZSWIM9 | SID160765351 | 0.539 | 92.6 | 0.423 | 92.6 | inactive
ZSWIM9 | SID160765352 | -0.483 | 72.3 | -0.726 | 97.8 | inactive
PNPLA10P | SID160768992 | 4.26 | 167 | 2.68 | 91.8 | active
PNPLA10P | SID160768993 | 0.256 | 87 | 0.157 | 93.3 | inactive
PNPLA10P | SID160768994 | -0.333 | 75.3 | 0.271 | 78.3 | inactive
SMNDC1 | SID160728080 | -1.28 | 56.3 | -0.31 | 68.3 | inactive
SMNDC1 | SID160728081 | 2.1 | 124 | 2.78 | 66.4 | inactive
SMNDC1 | SID160728082 | 2.12 | 124 | 3.56 | 54.3 | inactive
